Values from PubChem BioAssay AID1224828 (NIAID, 2016)
Purpose: 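Find genes required for NF-kappaB p65 moving into the nucleus after LPS in mouse macrophages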 (primary screen). Cell system: mouse RAW264.7 G9 macrophage reporter cells (GFP-p65, Tnf promoter-mCherry). Reagents: siRNA pool against mouse genes, 100 nM. Timing: 2 days siRNA transfection, then 40 min LPS before fixation. Challenge: LPS (Salmonella minnesota R595) at 10 ng/ml. Detection: 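Imaged p65 nuclear translocation ratio, normalised to the plate median, converted to robust z-scores and averaged across two replicates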. Reading the numbers: p65 translocation robust z-score: higher = more nuclear NF-kappaB p65 after LPS than the plate median; nuclear/cytoplasmic p65 ratio: higher = more nuclear NF-kappaB p65. Hit rule: 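Called active when z exceeds 3.3 or falls under -1.56 (median of Tlr4 controls), giving activity score of at least 50; no calls for control wells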. Meaning of the calls: active = hit (p65 shift raised or lowered); inactive = no clear change.
The whole screen tested about 17,000 reagents; below is an unselected part. In the full data, 762 (4.5%) are marked active. 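Active calls include both raised and lowered p65 entry, mostly lowered; wells with fewer than 50 cells lack a z-score.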 The raw values are shown without normalisation.

p65 translocation robust z-score | nuclear/cytoplasmic p65 ratio, rep 1 | nuclear/cytoplasmic p65 ratio, rep 2 | low cell count flag | Call | gene symbol
0.72 | 1.65 | 1.59 | enough cells to score | inactive | Rtn4rl1 (reticulon 4 receptor-like 1)
-1.22 | 1.37 | 1.39 | enough cells to score | inactive | Smad3 (SMAD family member 3)
0.68 | 1.63 | 1.66 | enough cells to score | inactive | Uts2r (urotensin 2 receptor)
-3.55 | 0.925 | 0.992 | enough cells to score | active | Txndc2 (thioredoxin domain containing 2 (spermatozoa))
-0.77 | 1.65 | 1.49 | enough cells to score | inactive | Map4 (microtubule-associated protein 4)
– | 1.16 | 1.4 | fewer than 50 cells per well; well left out of scoring | inactive | Gramd1a (GRAM domain containing 1A)
-2.52 | 1.28 | 1.2 | enough cells to score | active | Hs3st1 (heparan sulfate (glucosamine) 3-O-sulfotransferase 1)
1.04 | 1.59 | 1.67 | enough cells to score | inactive | Hspa12a (heat shock protein family A (Hsp70) member 12A)
0.52 | 1.54 | 1.41 | enough cells to score | inactive | Hmg20a (high mobility group 20A)
-1.42 | 1.48 | 1.16 | enough cells to score | inactive | Or2n1b (olfactory receptor family 2 subfamily N member 1B)
0.73 | 1.53 | 1.45 | enough cells to score | inactive | Mmp1a (matrix metallopeptidase 1a (interstitial collagenase))
2.43 | 1.45 | 2 | enough cells to score | inactive | Fam187b (family with sequence similarity 187, member B)
-0.73 | 1.32 | 1.32 | enough cells to score | inactive | Efna2 (ephrin A2)
0.07 | 1.42 | 1.26 | enough cells to score | inactive | Zfp346 (zinc finger protein 346)
-2.55 | 1.31 | 1.13 | enough cells to score | active | Lmcd1 (LIM and cysteine-rich domains 1)
0.54 | 1.63 | 1.65 | enough cells to score | inactive | Defb38 (defensin beta 38)
-0.46 | 1.42 | 1.13 | enough cells to score | inactive | Supv3l1 (suppressor of var1, 3-like 1 (S. cerevisiae))
-0.82 | 1.44 | 1.69 | enough cells to score | inactive | Capn8 (calpain 8)
1.18 | 1.4 | 1.47 | enough cells to score | inactive | Slfnl1 (schlafen like 1)
-0.36 | 1.51 | 1.32 | enough cells to score | inactive | Ccdc120 (coiled-coil domain containing 120)
0.47 | 1.5 | 1.24 | enough cells to score | inactive | Pcyt2 (phosphate cytidylyltransferase 2, ethanolamine)
0.26 | 1.33 | 1.28 | enough cells to score | inactive | Rbm4b (RNA binding motif protein 4B)
-0.68 | 1.45 | 1.38 | enough cells to score | inactive | Or2l13b (olfactory receptor family 2 subfamily L member 13B)
1.88 | 1.69 | 1.65 | enough cells to score | inactive | Cul3 (cullin 3)

Already shown: 3 of the entries above.
p65 translocation robust z-score | nuclear/cytoplasmic p65 ratio, rep 1 | nuclear/cytoplasmic p65 ratio, rep 2 | low cell count flag | Call | gene symbol
-1.42 | 1.48 | 1.16 | enough cells to score | inactive | Or2n1b (olfactory receptor family 2 subfamily N member 1B)
0.73 | 1.53 | 1.45 | enough cells to score | inactive | Mmp1a (matrix metallopeptidase 1a (interstitial collagenase))
2.43 | 1.45 | 2 | enough cells to score | inactive | Fam187b (family with sequence similarity 187, member B)
